Assay results as given in the supplement of paper PMC11237882.
This is one part of the list. Values are worked out from sequencing counts and are noisy.

T1: Homer1 EVH1 domain
T1 chain: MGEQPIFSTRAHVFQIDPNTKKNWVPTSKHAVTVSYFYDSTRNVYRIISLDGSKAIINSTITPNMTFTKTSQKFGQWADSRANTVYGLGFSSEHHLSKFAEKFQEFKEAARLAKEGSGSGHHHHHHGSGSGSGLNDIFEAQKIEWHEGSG

B1: unnamed (peptide)
chain: MTTFIPIIFSSVVVVLFVIGNFANGFIALVNSIERA
B2: unnamed (peptide)
chain: RTQNQVLFFFAAIIFTVSVALHLFSIDEEQYSPQQD
B3: unnamed (peptide)
chain: KANKALWLSIAFIVLFAALMSFLTGQLFQKSVDAAP
B4: unnamed (peptide)
chain: KKDLYGTLSPTTPFCWIKDDSIFYISVVAYFCLIFL
B5: unnamed (peptide)
chain: KKTLQSTLLLLLLVPLIKPAPPTQQDSRIIYDYGTD
B6: unnamed (peptide)
chain: PYREEDIPAPLNLYGKTKLDGEKAVLENNLGAAVLR
B7: unnamed (peptide)
chain: MGTLLGLGAVLAYQDHRCRAAQESTHIYTKEEVSSH
B8: unnamed (peptide)
chain: MANPGLGLLLALGLPFLLARWGRAWGQIQTTSANEN
B9: unnamed (peptide)
chain: KITNRLTIQRKSQFMQRLHSYWTLKRQSRNGVTLLC
B10: unnamed (peptide)
chain: QRVLPLKKPPMKSLRKKGSGKILTPAKKSFLRRLFD
B11: unnamed (peptide)
chain: ILLLLPIFLISTSYVFILQSVIQMRSSGSKRNAFAT
B12: unnamed (peptide)
chain: ISTSVHHVLIWIHCFTVYLVPCSIFFILNSIIVYKP

Biological target: T1, Homer1 EVH1 domain
Assay: enrichment score (AUC of log2 frequency ratio across FACS sorting rounds) (log2 AUC); higher = stronger enrichment for Homer1 EVH1 binding

Row | Binder | enrichment score
1 | B1 | 2.56
2 | B2 | 2.03
3 | B3 | -2.22
4 | B4 | 0.84
5 | B5 | 4.59
6 | B6 | -2.23
7 | B7 | 1.89
8 | B8 | 4.38
9 | B9 | 3.71
10 | B10 | 2.99
11 | B11 | -1.11
12 | B12 | -0.0294

Exported with each value named: entries from further up
B9
  enrichment score = 3.71
B10
  enrichment score = 2.99
